Laboratory results from article doi:10.1101/2022.08.05.502996.

Amino acid sequences for entries named in this document (tags omitted). A change or cut given only in a name is not applied to a line headed by its entry.
UniProt Q9SHJ3: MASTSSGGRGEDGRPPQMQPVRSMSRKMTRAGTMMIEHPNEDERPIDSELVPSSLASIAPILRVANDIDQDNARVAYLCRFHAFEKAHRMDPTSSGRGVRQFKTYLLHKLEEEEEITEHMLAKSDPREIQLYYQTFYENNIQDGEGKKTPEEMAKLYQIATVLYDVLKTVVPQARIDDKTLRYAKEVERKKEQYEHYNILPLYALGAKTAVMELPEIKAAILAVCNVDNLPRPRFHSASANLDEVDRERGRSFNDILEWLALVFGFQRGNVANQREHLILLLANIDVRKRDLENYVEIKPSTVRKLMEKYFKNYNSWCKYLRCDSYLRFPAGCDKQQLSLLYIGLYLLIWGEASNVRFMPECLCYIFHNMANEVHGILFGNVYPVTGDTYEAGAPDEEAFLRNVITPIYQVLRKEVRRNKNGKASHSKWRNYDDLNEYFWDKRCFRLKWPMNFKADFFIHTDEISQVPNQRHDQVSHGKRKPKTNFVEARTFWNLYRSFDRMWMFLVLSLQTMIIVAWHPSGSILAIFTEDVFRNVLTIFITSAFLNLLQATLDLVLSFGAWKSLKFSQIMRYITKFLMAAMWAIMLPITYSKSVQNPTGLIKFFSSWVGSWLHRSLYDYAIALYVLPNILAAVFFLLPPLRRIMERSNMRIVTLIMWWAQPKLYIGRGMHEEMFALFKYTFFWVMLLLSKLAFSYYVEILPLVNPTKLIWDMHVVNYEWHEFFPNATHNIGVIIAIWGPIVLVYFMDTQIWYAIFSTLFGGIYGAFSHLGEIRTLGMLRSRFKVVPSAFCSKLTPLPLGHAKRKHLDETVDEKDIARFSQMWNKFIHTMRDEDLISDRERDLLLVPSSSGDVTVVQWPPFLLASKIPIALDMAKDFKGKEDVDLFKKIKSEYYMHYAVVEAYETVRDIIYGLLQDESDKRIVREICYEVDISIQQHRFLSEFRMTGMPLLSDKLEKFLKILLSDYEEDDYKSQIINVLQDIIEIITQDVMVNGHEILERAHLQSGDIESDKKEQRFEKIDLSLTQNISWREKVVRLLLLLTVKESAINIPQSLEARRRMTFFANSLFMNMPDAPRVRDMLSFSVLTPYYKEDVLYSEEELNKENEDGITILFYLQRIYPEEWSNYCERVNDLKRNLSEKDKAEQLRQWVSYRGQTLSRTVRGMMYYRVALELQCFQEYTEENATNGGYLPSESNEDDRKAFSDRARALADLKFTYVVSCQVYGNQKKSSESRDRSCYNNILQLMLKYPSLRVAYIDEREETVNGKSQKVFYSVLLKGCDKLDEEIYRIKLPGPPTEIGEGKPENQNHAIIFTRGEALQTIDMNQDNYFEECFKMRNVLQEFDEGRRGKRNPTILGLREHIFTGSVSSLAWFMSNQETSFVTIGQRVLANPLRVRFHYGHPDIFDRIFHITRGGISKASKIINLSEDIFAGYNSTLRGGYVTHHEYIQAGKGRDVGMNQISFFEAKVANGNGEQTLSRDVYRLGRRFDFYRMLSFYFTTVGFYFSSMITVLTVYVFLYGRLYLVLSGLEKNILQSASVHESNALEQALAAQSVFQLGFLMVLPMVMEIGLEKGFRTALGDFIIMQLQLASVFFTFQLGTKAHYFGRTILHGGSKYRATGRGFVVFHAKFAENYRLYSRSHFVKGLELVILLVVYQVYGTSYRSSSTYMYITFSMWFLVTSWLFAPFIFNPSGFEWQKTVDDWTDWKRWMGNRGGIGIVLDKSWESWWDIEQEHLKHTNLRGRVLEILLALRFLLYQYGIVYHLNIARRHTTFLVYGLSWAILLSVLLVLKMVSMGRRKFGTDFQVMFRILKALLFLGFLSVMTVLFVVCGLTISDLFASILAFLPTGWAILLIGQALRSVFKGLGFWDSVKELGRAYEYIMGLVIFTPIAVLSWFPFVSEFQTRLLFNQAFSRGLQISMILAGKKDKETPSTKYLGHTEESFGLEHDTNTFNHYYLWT
UniProt Q9FX32: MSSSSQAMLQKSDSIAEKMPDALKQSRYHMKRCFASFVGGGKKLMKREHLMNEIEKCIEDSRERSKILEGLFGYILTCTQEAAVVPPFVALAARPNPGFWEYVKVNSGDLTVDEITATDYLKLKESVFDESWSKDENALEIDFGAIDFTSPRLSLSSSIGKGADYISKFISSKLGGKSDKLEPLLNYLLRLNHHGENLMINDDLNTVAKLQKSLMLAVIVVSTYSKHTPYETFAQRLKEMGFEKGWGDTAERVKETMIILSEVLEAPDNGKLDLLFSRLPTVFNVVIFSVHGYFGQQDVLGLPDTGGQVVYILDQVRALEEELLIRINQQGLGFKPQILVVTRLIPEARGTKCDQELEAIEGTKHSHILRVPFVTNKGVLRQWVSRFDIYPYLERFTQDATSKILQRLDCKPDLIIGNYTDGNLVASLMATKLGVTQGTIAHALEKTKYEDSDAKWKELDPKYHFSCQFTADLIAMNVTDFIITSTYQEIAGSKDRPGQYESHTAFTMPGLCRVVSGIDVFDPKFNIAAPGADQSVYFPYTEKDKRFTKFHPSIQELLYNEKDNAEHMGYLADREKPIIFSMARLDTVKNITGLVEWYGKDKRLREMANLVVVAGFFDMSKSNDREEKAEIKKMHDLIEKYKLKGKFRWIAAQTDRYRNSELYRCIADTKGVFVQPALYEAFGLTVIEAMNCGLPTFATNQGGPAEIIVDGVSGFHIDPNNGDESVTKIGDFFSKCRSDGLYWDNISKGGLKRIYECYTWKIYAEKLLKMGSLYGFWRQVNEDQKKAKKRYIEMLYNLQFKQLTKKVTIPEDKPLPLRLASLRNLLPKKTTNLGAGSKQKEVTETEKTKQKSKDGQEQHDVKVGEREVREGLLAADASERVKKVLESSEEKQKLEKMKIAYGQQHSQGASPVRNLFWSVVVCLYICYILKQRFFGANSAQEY
UniProt Q9M2D8: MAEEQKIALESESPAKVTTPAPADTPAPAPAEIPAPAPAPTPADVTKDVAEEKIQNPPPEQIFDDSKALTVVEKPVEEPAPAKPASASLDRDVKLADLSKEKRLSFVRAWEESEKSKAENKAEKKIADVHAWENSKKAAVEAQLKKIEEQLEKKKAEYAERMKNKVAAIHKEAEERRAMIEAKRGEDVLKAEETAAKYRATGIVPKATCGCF
UniProt O80837: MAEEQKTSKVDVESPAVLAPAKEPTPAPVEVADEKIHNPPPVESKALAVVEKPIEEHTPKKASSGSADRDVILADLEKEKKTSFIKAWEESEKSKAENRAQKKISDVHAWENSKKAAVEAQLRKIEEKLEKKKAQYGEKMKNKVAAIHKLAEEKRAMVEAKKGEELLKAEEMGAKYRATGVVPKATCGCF

Legend:
Test in all cases: proximity labelling
[1] = molecular target: T1, PDLP5-TurboID-3xFlag (Arabidopsis thaliana) (UniProt Q8GUJ2)
T1 sequence: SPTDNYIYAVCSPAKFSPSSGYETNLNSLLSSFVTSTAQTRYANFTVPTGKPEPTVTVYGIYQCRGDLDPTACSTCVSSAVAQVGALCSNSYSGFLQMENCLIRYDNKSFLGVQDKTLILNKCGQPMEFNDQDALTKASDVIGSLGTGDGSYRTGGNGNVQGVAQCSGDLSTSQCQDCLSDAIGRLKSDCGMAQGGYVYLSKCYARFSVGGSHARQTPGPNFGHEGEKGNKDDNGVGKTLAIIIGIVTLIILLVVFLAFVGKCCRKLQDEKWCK

[2] = molecular target: T2, PDLP6-TbID-3xFlag (Arabidopsis thaliana) (UniProt Q9ZU94)
T2 sequence: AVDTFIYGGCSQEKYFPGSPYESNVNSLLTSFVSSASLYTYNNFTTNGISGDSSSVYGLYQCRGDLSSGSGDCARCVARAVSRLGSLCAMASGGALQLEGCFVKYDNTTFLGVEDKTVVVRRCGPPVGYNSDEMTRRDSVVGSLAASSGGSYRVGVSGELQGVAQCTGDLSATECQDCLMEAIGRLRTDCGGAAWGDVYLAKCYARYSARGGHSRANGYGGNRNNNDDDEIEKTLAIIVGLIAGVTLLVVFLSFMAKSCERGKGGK

[3] = molecular target: T3, TbID-3xFlag-MCTP3 (Arabidopsis thaliana) (UniProt Q9M2R0)
T3 sequence: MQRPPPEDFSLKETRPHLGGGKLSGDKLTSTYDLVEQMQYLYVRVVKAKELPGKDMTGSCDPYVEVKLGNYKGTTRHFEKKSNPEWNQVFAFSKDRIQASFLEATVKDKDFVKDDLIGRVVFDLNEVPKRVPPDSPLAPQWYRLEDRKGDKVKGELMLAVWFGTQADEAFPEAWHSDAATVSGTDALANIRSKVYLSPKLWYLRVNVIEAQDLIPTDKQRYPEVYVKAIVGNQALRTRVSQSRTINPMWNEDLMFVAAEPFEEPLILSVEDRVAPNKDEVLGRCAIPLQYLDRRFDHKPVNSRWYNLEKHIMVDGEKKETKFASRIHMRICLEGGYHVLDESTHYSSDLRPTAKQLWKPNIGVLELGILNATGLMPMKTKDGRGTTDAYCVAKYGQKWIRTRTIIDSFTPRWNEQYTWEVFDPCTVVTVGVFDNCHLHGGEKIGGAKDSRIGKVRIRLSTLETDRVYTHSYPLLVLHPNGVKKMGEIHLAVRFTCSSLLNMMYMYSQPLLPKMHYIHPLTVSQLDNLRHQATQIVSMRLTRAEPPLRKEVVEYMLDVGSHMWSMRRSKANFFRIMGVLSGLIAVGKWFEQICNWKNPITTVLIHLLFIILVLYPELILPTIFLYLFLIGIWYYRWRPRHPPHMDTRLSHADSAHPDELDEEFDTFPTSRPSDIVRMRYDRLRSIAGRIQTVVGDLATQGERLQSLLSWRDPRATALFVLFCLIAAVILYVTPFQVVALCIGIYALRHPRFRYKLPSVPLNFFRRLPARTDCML

Row | binding [1] | binding [2] | binding [3] | Molecule
1 |  | no binding |  | callose synthase 7 (CalS7), endogenous (from UniProt Q9SHJ3 1-1958) (enzyme)
2 |  | binds |  | sucrose synthase 6 (SUS6), endogenous (from UniProt Q9FX32 1-942) (enzyme)
3 |  |  | binds | RTNLB8 (protein, UniProt Q9SS37 1-247) MPDKNIVEDVIGDLVDNFTETVQKNKHGSSFFEQEDSVSSRFNRLFDRQKPIHHVLGGGKSADVLLWRNKKISASVLMGATAIWVLFEWINFHFLSLVCYALLLGMIAQFVWSNASGFLNRSQSRVPRLVLPKDFFAEVGVAVGKEVNRGLLFLQDLACKGNLKQFLMAVIGLWVAAMVGSCCNFLTVLYIGFVGAHTMPVLYERYEDEVDGFMDSMIMKFHSHYKKLDTGFLSRIPSGKFGLKKRE
4 |  |  | binds | RTNLB6 (protein, UniProt Q6DBN4 1-253) MAEELEKSMHKEESLMEKIADKIHDHDSSSSSDSEHEKPESPSALKAKIYRLFGREKPVHKVLGGGLPADVFLWRDKKLSASVLGVATAIWVLFELVEYHFLSLVCHILIFALAALFLLSNAHAFMNKTPPKIPEIHIKEEHFLMIVSALRNELNQAFVILRSIALGRDLKKFLMVVFGLWIISVVGNWFNFLTLVYICFVVLHTVPMLYEKHEDKVDPVAEKTLKELKKHYMVFDEKVLSKLPVASLKAKLG

Second part, the molecule before the results:

Row | Molecule | binding [1] | binding [2] | binding [3]
5 | REM1.2 (from UniProt Q9M2D8) | binds | binds | 
6 | REM1.3 (from UniProt O80837) | binds | binds | 
7 | CLV1 (receptor, UniProt Q9SYQ8 25-980) YTDMEVLLNLKSSMIGPKGHGLHDWIHSSSPDAHCSFSGVSCDDDARVISLNVSFTPLFGTISPEIGMLTHLVNLTLAANNFTGELPLEMKSLTSLKVLNISNNGNLTGTFPGEILKAMVDLEVLDTYNNNFNGKLPPEMSELKKLKYLSFGGNFFSGEIPESYGDIQSLEYLGLNGAGLSGKSPAFLSRLKNLREMYIGYYNSYTGGVPPEFGGLTKLEILDMASCTLTGEIPTSLSNLKHLHTLFLHINNLTGHIPPELSGLVSLKSLDLSINQLTGEIPQSFINLGNITLINLFRNNLYGQIPEAIGELPKLEVFEVWENNFTLQLPANLGRNGNLIKLDVSDNHLTGLIPKDLCRGEKLEMLILSNNFFFGPIPEELGKCKSLTKIRIVKNLLNGTVPAGLFNLPLVTIIELTDNFFSGELPVTMSGDVLDQIYLSNNWFSGEIPPAIGNFPNLQTLFLDRNRFRGNIPREIFELKHLSRINTSANNITGGIPDSISRCSTLISVDLSRNRINGEIPKGINNVKNLGTLNISGNQLTGSIPTGIGNMTSLTTLDLSFNDLSGRVPLGGQFLVFNETSFAGNTYLCLPHRVSCPTRPGQTSDHNHTALFSPSRIVITVIAAITGLILISVAIRQMNKKKNQKSLAWKLTAFQKLDFKSEDVLECLKEENIIGKGGAGIVYRGSMPNNVDVAIKRLVGRGTGRSDHGFTAEIQTLGRIRHRHIVRLLGYVANKDTNLLLYEYMPNGSLGELLHGSKGGHLQWETRHRVAVEAAKGLCYLHHDCSPLILHRDVKSNNILLDSDFEAHVADFGLAKFLVDGAASECMSSIAGSYGYIAPEYAYTLKVDEKSDVYSFGVVLLELIAGKKPVGEFGEGVDIVRWVRNTEEEITQPSDAAIVVAIVDPRLTGYPLTSVIHVFKIAMMCVEEEAAARPTMREVVHMLTNPPKSVANLIAF | binds | binds | 
8 | HVA22a (protein, UniProt Q9S7V4 1-177) MGSGAGNFLKVLLRNFDVLAGPVVSLVYPLYASVQAIETQSHADDKQWLTYWVLYSLLTLIELTFAKLIEWLPIWSYMKLILTCWLVIPYFSGAAYVYEHFVRPVFVNPRSINIWYVPKKMDIFRKPDDVLTAAEKYIAENGPDAFEKILSRADKSKRYNKHEYESYETMYGEGYQY |  |  | binds
9 | HVA22c (protein, UniProt Q9S784 1-184) MPSNSGDDNVLQVLIKNFDVLALPLVTLVYPLYASVKAIETRSLPEDEQWLTYWVLYALISLFELTFSKPLEWFPIWPYMKLFGICWLVLPQFNGAEHIYKHFIRPFYRDPQRATTKIWYVPHKKFNFFPKRDDDDILTAAEKYMEQHGTEAFERMIVKKDSYERGRSSRGINNHMIFDDDYRY |  |  | binds

No constants are given. Whether binding was seen depends on the method and setting. In cells and extracts the contact can be indirect. Here binding means that the protein was enriched with, or labelled near, the bait; the list need not be complete. For part of these data: No binding means not detected with the bait. Where a sequence is shown, tags or fusion partners need not be part of it.
